Data on 1 molecule can be found in paper PMC9927256, “Structural and Functional Characterization of Rv0792c from Mycobacterium tuberculosis: Identifying Small Molecule Inhibitor against HutC Protein” (Microbiology Spectrum, 2022).

These are yes or no findings as the source states them, for the method shown. Some binding calls cover weakened binding; strength is not graded here. Sequences can lack the tags named with a protein.

Assay [1] addresses Rv0792c from Mycobacterium tuberculosis, wild type, with an amino-terminal histidine tag (Mycobacterium tuberculosis) (UniProt O86331). Briefly: SAXS; molar mixtures of Rv0792c with the ssDNA aptamers Rv0792c_1 or Rv0792c_5; mass from the scattering data; both purified.
The target is the same in assay [2]. Description: condition: only with the ssDNA aptamer Rv0792c_2 in a molar mixture; SAXS; molar mixture of Rv0792c with the ssDNA aptamer Rv0792c_2; mass from the scattering data; both purified.

B1: Rv0792c from Mycobacterium tuberculosis, wild type, with an amino-terminal histidine tag (natural protein)
chain: MTSVKLDLDAADLRISRGSVPASTQLAEALKAQIIQQRLPRGGRLPSERELIDRSGLSRVTVRAAVGMLQRQGWLVRRQGLGTFVADPVEQELSCGVRTITEVLLSCGVTPQVDVLSHQTGPAPQRISETLGLVEVLCIRRRIRTGDQPLALVTAYLPPGVGPAVEPLLSGSADTETTYAMWERRLGVRIAQATHEIHAAGASPDVADALGLAVGSPVLVVDRTSYTNDGKPLEVVVFHHRPERYQFSVTLPRTLPGSGAGIIEKRDFA
notes: also called His6-Rv0792c; (His)6-Rv0792c; not shown: His6, N-terminal, kept
Consider B1, for which the binding result is given as “binds” in assay [1] and “no binding” in assay [2].
